Data reported in patent publication US20170298121A1 (GlaxoSmithKline, published 2017).
Results are given in words; binding and its absence hold for the method and conditions named. Some entries that bind do so weakly or less than the wild type.

Sequences of proteins named here, by UniProt entry; tags and fusion partners are left off. Residues count along the entry.
UniProt P07724, residues 25-608: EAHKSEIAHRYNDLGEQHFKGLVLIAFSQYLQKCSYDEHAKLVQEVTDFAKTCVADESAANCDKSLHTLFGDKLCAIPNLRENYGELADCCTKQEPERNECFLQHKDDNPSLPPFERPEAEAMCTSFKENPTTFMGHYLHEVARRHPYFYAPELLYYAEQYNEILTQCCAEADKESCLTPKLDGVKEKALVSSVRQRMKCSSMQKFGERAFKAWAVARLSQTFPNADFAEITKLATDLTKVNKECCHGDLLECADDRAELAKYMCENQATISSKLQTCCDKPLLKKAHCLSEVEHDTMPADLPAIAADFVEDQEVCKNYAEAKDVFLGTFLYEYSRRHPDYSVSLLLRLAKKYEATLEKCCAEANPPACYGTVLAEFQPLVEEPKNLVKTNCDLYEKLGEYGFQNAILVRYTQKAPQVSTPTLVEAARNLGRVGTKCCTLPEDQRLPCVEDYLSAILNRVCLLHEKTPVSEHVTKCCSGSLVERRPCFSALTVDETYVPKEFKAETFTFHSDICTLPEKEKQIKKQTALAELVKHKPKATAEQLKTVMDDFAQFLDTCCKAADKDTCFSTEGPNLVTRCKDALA
UniProt P02770, residues 25-608: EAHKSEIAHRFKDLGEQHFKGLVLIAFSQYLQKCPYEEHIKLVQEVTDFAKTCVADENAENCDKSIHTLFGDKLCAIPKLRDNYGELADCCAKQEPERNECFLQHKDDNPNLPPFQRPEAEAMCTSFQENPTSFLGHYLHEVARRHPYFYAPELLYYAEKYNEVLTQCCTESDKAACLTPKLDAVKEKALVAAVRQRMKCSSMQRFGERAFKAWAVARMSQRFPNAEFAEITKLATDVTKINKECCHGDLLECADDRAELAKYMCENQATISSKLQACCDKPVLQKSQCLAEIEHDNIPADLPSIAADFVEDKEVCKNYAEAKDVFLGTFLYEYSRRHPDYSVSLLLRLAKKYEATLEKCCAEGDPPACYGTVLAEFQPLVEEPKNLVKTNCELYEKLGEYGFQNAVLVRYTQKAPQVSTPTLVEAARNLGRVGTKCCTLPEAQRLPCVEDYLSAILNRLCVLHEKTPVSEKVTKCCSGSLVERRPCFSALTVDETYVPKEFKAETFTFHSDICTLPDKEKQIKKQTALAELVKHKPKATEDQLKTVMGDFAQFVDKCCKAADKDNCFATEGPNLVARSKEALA

Tests used:
[1] = biological target: mouse serum albumin (mouse) (UniProt P07724); assay: SPR (BiaCore), purified dAb at 1 µM, 500 nM, 50 nM
Rat Serum Albumin (rat) = Rat Serum Albumin (rat) (UniProt P02770); assay: SPR (BiaCore), purified dAb at 1 µM, 500 nM, 50 nM

B1: DOM7h-11-3 (protein)
VL: DIQMTQSPSSLSASVGDRVTITCRASRPIGTTLSWYQQKPGKAPKLLILWNSRLQSGVPSRFSGSGSGTDFTLTISSLQPEDFATYYCAQAGTHPTTFGQGTKVEIKR
- binding [1]: binds
- binding (Rat Serum Albumin (rat)): binds
